According to PubChem BioAssay AID504834 (National Center for Advancing Translational Sciences (NCATS), 2011):
About 22,000 (6.9%) of roughly 320,000 compounds were called active. Inconclusive means that the source gave no clear call. Such entries were picked first, then a sample of the others. Calls come from the whole dose curve; as a rule, active = well fitted inhibition curve with a large enough effect; inconclusive = small, poorly fitted or top-dose-only effect, or another doubt; inactive = no such curve, though single readings can be large or run the other way. Potencies beside an inconclusive call are fits to weak or partial responses and may not hold up.

Assay: Primary qHTS for delayed death inhibitors of the malarial parasite plastid, 96 hour incubation
Settings: P. falciparum luciferase reporter growth; series mostly up to 28.7 µM
Method in brief: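 Two-generation exposure (96 h) targets delayed-death phenotype. Reporter parasites carrying integrated firefly luciferase, in red cells at 2% hematocrit and 0.05% parasitemia final, kept at 37 C, 5% CO2; luminescence loss indicates inhibition.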
Potency is the fitted concentration of half-maximal effect.

Row | SMILES | Potency
1 | O=C(Cc1ccccc1)NCC(=O)N/N=C/c1ccc(C(=O)O)cc1 | inactive
2 | COc1ccc(NC(=S)Nc2ccc3cn[nH]c3c2)cc1 | inactive
3 | COC1=C(OC)c2ccccc2C(C(=O)O)N/C1=C(/C)Nc1ccncc1 (stereo not drawn) | inconclusive: 1.17 µM [inhibitor, full curve, poor fit]
4 | CN1C(=O)c2ccccc2Sc2ccc(NC(=O)N3CCOCC3)cc21 | inconclusive: 1.17 µM [inhibitor, partial curve, poor fit]
5 | COc1cccc(NC(=O)Cn2cnc3c(oc4nc5c(cc43)CCCC5)c2=O)c1 | inconclusive: 14.7 µM [inhibitor, partial curve]
6 | COc1ccccc1NC(=O)CSc1nncn1N | inactive
7 | OCCNCc1cccc(OCc2ccc(Cl)cc2)c1 | inactive
8 | Cc1ccc2cc3cc(C(=O)NC4CCCCC4)oc3nc2c1 | inconclusive: 18.5 µM [inhibitor, single point]
9 | Cc1cccc2cc(C#N)c(SCC(=O)NNC(=O)Cc3ccccc3)nc12 | inactive
10 | Cc1ccc(NC(=O)CCc2c(C)nn(-c3ccc(N4CCOCC4)nn3)c2C)cc1F | inconclusive: 18.5 µM [inhibitor, single point]
11 | COc1ccc(NC(=O)[C@@H](NC(N)=O)C(C)C)cc1Cl | inactive
12 | COCCCNC(=O)c1ccc(CS(=O)(=O)c2ccc(OC)cc2)o1 | active: 10.4 µM
13 | CS(=O)(=O)N(CC(=O)N1CCN(Cc2ccccc2)CC1)c1cccc([N+](=O)[O-])c1 | active: 2.94 µM
14 | CCOC(=O)c1c(S(=O)(=O)N2CCCC(C(=O)Nc3ncccc3C)C2)c(C)n(C)c1C (stereo not drawn) | active: 11.7 µM
15 | O=C(CCCN1C(=O)/C(=C/c2ccco2)SC1=S)Nc1cccc(C(=O)O)c1 | active: 13.1 µM
16 | N#Cc1cn(CC(=O)N2CCCc3ccccc32)c2ccccc12 | inconclusive: 4.15 µM [inhibitor, single point]
17 | O=C(CN1CCCCCC1)Nc1ccc(Cl)cn1 | inconclusive: 14.7 µM [inhibitor, single point]
18 | CCC(=O)N1CCc2cc(S(=O)(=O)CCC(=O)NCc3ccco3)ccc21 | inconclusive: 18.5 µM [inhibitor, single point]
19 | CCn1c(-c2cc(-c3ccc(C)cc3)nc3ccccc23)n[nH]c1=S | active: 16.5 µM
20 | COc1ccc(NS(=O)(=O)c2cc(NC(=O)c3ccc(=O)[nH]n3)ccc2N2CCOCC2)cc1 | inconclusive: 11.7 µM [inhibitor, single point]
21 | Cc1ccc(/C=N/NC(=S)NCCc2ccccc2)s1 | inconclusive: 16.5 µM [inhibitor, single point]
22 | CCCCCn1c(=O)c(C(=O)Nc2ncccc2C)c(O)c2ccccc21 | inconclusive: 18.5 µM [inhibitor, single point]
23 | CC(C)C(OC(=O)c1nsc(Cl)c1Cl)C(=O)NCc1ccccc1 (stereo not drawn) | inactive
24 | CCn1c(=N)c(S(=O)(=O)c2ccccc2)cc2c(=O)n3ccccc3nc21 | inconclusive: 18.5 µM [inhibitor, single point]
25 | CCCOc1cc(C)c(Cl)cc1S(=O)(=O)N(CC)CC | inconclusive: 18.5 µM [inhibitor, single point]

Row | SMILES | Potency
26 | CCN(CC(=O)Nc1ccc(NC(C)=O)cc1)C(=O)/C=C/c1ccco1 | inactive
27 | O=C(Nc1ccc(N2CCOCC2)c(Cl)c1)c1ccc(F)cc1 | inactive
28 | COc1ccccc1N=C1SC(C(=O)Nc2cccc(Cl)c2Cl)C(N)=C1C(N)=O (stereo not drawn) | inconclusive: 2.62 µM [inhibitor, full curve, poor fit]
29 | CCOC(=O)c1ccccc1NC(=O)CN1C(=O)NC(C)(CCc2ccccc2)C1=O (stereo not drawn) | inconclusive: 11.7 µM [inhibitor, single point]
30 | CC1=C(C)CC(C(=O)NCCc2ccc(F)cc2)C(C(=O)O)C1 (stereo not drawn) | inactive
31 | Cc1cc(=O)[nH]c(-c2cccnc2)n1 | inactive
32 | CCN(CC)C1CCS(=O)(=O)C1 (stereo not drawn) | active: 0.185 µM
33 | O=C(COc1cccc2cccnc12)NCC(F)(F)F | inactive
34 | CCc1noc(C)c1C(=O)Nc1nc(-c2cc(C)ccc2C)c(C)s1 | active: 10.4 µM
35 | S=c1[nH]nc(-c2cccs2)n1/N=C/c1cn(-c2ccccc2)nc1-c1ccccc1 | inconclusive: 13.1 µM [inhibitor, single point]
36 | COc1ccc(-c2noc(N3CCC(C(=O)NCCCN4CCC(C)CC4)CC3)n2)cc1 | inconclusive: 0.465 µM [inhibitor, full curve, poor fit]
37 | CCN1CCN(c2ccc(S(=O)(=O)N3CCCCC3)cc2NC(=O)c2cccc(C(F)(F)F)c2)CC1 | inconclusive: 18.5 µM [inhibitor, single point]
38 | COc1ccc(-c2cc(C(=O)Nc3ccc(S(=O)(=O)Nc4onc(C)c4C)cc3)c3ccccc3n2)cc1 | inconclusive: 20.8 µM [inhibitor, partial curve, poor fit]
39 | CCN1CCN(CCCNC(=O)c2ccc3c(c2)N(Cc2ccc(C)cc2)CCS3)CC1 | inconclusive: 11.7 µM [inhibitor, single point]
40 | COc1ccc(Cc2nc3ccc(C(=O)N4CCC(N(C)C)C4)cc3o2)cc1 (stereo not drawn) | inconclusive: 18.5 µM [inhibitor, single point]
41 | Cc1nc2ccc(C(=O)OCc3nnc(-c4ccc(Br)cc4)o3)cc2nc1C | inactive
42 | O=C(Nc1cccc([N+](=O)[O-])c1)c1ccn[nH]1 | inconclusive: 11.7 µM [inhibitor, single point]
43 | Cc1ccc(NS(=O)(=O)c2ccc3c(c2)OCCCO3)cc1S(=O)(=O)N1CCOCC1 | inconclusive: 18.5 µM [inhibitor, single point]
44 | COC(=O)N/N=C/c1ccccc1OCc1ccccc1 | inactive
45 | Cc1cc(C)cc(-n2nnc(C(=O)NCc3ccc(Cl)cc3)c2N)c1 | inactive
46 | Cc1ccc(C)c(S(=O)(=O)/N=C2\C=C(NS(=O)(=O)c3ccccc3)C(=O)c3ccccc32)c1 | inconclusive: 20.8 µM [inhibitor, single point]
47 | CCOc1ccc(Nc2nc(N)c([N+](=O)[O-])c(N3CCN(C)CC3)n2)cc1 | inconclusive: 14.7 µM [inhibitor, single point]
48 | CC1(C)CC(=O)C=C(NNC(=O)c2ccc(N)cc2)C1 | inactive
49 | Cc1nc2ccccc2c(=O)n1NC(=O)c1ccc(F)cc1Cl | active: 9.28 µM
50 | COC(=O)[C@@H]1Cc2c([nH]c3ccccc23)C(C)(C)N1C(=O)CCl | inconclusive: 4.15 µM [inhibitor, partial curve]

Row | SMILES | Potency
51 | Cn1c(CNC(=O)c2ccc(F)cc2)cc2ccccc21 | inconclusive: 18.5 µM [inhibitor, single point]
52 | COc1ccc(S(=O)(=O)N2CCN(C(=O)N3CCOCC3)C2C)cc1 (stereo not drawn) | inactive
53 | COCCNC(=O)c1cccc(OC2CCN(Cc3ccccc3OC(F)F)CC2)c1 | inconclusive: 11.7 µM [inhibitor, single point]
54 | COc1cccc(CN2CCN(C(=O)c3ccc(-c4ccccc4)cc3)CC2)c1 | inactive
55 | CCOC(=O)c1c(/N=C/c2ccc(C)cc2O)sc2c1CCN(C)C2 | inconclusive: 18.5 µM [inhibitor, single point]
56 | Cc1ccc(C)c(NC(=O)Cn2nnc(C(=O)NCc3ccco3)c2N)c1 | inconclusive: 18.5 µM [inhibitor, single point]
57 | Cc1ccc(NC(=O)C(C)N2C(=O)c3ccccc3C2=O)cc1C (stereo not drawn) | inconclusive: 18.5 µM [inhibitor, single point]
58 | Oc1nc(Nc2cccc(Cl)c2)sc1/C=C1\C=Nc2ccccc21 | inconclusive: 11.7 µM [inhibitor, single point]
59 | CCC1CN(C(=O)N2CCC(C(=O)NCc3ccc(F)cc3)CC2)c2ccccc2O1 (stereo not drawn) | inconclusive: 18.5 µM [inhibitor, single point]
60 | Cc1c(C(=O)Nc2ccccc2)cc(-c2ccccc2)n1CCCN1CCOCC1 | inconclusive: 8.28 µM [inhibitor, partial curve, poor fit]
61 | CCCCOC(=O)CCN1C(=O)/C(=C2\SC(=S)N(CCC(=O)OCCCC)C2=O)SC1=S | inconclusive: 18.5 µM [inhibitor, single point]
62 | CCNCc1cc(Cl)cc(OC)c1OC(C)C | inconclusive: 0.117 µM [inhibitor, full curve, poor fit]
63 | Cc1ccccc1OC(C)C(=O)Nc1ccc2c(c1)OCO2 (stereo not drawn) | inconclusive: 11.7 µM [inhibitor, partial curve]
64 | CN(C(=O)CN1C(=O)NC(C)(CCc2ccccc2)C1=O)c1ccccc1 (stereo not drawn) | inactive
65 | CCC(C)S(=O)(=O)c1snnc1C (stereo not drawn) | inactive
66 | O=C(Cn1nnc(-c2ccccc2)n1)OCc1ccccc1 | inconclusive: 10.4 µM [inhibitor, partial curve]
67 | COc1ccc(NC(=O)CN(c2ccc(F)cc2)S(=O)(=O)c2ccccc2)c(OC)c1 | inactive
68 | CN1C(=O)NC(c2cccc([N+](=O)[O-])c2)C2=C1CC(C)(C)CC2=O (stereo not drawn) | inconclusive: 10.4 µM [inhibitor, single point]
69 | CCCc1nnc(NC(=O)CCC(=O)N2CCC(Cc3ccccc3)CC2)s1 | inconclusive: 18.5 µM [inhibitor, single point]
70 | O=C(C#Cc1ccccc1)c1ccco1 | inactive
71 | Cc1ccc(S(=O)(=O)N2CCN(C(=O)CCc3c[nH]c4ccccc34)CC2)c(C)c1 | active: 7.38 µM
72 | O=C(N/N=C/c1ccccn1)C(=O)N1CCCCCC1 | inactive
73 | Cc1cc(OCC(=O)NNC(=S)NC(=O)c2ccc(Br)o2)ccc1Cl | inconclusive: 18.5 µM [inhibitor, single point]

Ordered by number of heavy atoms (falling): 3 of the compounds above
Row | SMILES | Potency
67 | COc1ccc(NC(=O)CN(c2ccc(F)cc2)S(=O)(=O)c2ccccc2)c(OC)c1 | inactive
63 | Cc1ccccc1OC(C)C(=O)Nc1ccc2c(c1)OCO2 (stereo not drawn) | inconclusive: 11.7 µM [inhibitor, partial curve]
62 | CCNCc1cc(Cl)cc(OC)c1OC(C)C | inconclusive: 0.117 µM [inhibitor, full curve, poor fit]
